# According to paper PMC5558966:
# Sequences of proteins named here, by UniProt entry; tags and fusion partners are left off.
# UniProt Q02821: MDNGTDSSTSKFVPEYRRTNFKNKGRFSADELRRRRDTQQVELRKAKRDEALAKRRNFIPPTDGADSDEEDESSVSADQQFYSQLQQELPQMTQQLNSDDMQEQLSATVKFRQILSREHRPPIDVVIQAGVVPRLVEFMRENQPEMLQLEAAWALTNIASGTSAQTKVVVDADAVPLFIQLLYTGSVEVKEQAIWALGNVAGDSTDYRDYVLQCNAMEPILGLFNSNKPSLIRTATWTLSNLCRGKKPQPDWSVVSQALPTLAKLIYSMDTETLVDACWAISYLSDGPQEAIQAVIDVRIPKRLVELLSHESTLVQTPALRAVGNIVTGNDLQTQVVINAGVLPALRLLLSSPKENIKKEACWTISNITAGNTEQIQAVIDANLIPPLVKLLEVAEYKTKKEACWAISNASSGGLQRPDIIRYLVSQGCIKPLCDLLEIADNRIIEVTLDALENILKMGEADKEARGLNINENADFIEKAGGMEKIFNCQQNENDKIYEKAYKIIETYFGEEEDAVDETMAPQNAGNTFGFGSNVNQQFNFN
# No constants are given. Whether binding was seen depends on the method and setting. Binding seen in cells or lysates may run through a third protein. Some results given as binding are weak or reduced against the parent protein; the word gives no strength.
# B1: newly synthesized scMpp10 (protein, UniProt P47083 1-593)
# chain: MSELFGVLKSNAGRIILKDPSATSKDVKAYIDSVINTCKNGSITKKAELDEITVDGLDANQVWWQVKLVLDSIDGDLIQGIQELKDVVTPSHNLSDGSTLNSSSGEESELEEAESVFKEKQMLSADVSEIEEQSNDSLSENDEEPSMDDEKTSAEAAREEFAEEKRISSGQDERHSSPDPYGINDKFFDLEKFNRDTLAAEDSNEASEGSEDEDIDYFQDMPSDDEEEEAIYYEDFFDKPTKEPVKKHSDVKDPKEDEELDEEEHDSAMDKVKLDLFADEEDEPNAEGVGEASDKNLSSFEKQQIEIRKQIEQLENEAVAEKKWSLKGEVKAKDRPEDALLTEELEFDRTAKPVPVITSEVTESLEDMIRRRIQDSNFDDLQRRTLLDITRKSQRPQFELSDVKSSKSLAEIYEDDYTRAEDESALSEELQKAHSEISELYANLVYKLDVLSSVHFVPKPASTSLEIRVETPTISMEDAQPLYMSNASSLAPQEIYNVGKAEKDGEIRLKNGVAMSKEELTREDKNRLRRALKRKRSKANLPNVNKRSKRNDVVDTLSKAKNITVINQKGEKKDVSGKTKKSRSGPDSTNIKL
# Target: Srp1/Kap60 (S. cerevisiae) (UniProt Q02821)
# Assay: co-IP; data not shown; non-radioactive pulse-chase analyses combined with affinity-purification in S. cerevisiae
binder,measurement,value
B1,binding,binds
